The values below come from paper PMC10795994.

Results are given in words; binding and its absence hold for the method and conditions named. For some of these results: Binding seen in cells or lysates may run through a third protein. Some binding calls cover weakened binding; strength is not graded here. Tags and fused reporters may be left off the sequences shown.

Assay [1] concerns the target T1, Lsd1-FTP (S. pombe) (UniProt Q9Y802).
T1 sequence: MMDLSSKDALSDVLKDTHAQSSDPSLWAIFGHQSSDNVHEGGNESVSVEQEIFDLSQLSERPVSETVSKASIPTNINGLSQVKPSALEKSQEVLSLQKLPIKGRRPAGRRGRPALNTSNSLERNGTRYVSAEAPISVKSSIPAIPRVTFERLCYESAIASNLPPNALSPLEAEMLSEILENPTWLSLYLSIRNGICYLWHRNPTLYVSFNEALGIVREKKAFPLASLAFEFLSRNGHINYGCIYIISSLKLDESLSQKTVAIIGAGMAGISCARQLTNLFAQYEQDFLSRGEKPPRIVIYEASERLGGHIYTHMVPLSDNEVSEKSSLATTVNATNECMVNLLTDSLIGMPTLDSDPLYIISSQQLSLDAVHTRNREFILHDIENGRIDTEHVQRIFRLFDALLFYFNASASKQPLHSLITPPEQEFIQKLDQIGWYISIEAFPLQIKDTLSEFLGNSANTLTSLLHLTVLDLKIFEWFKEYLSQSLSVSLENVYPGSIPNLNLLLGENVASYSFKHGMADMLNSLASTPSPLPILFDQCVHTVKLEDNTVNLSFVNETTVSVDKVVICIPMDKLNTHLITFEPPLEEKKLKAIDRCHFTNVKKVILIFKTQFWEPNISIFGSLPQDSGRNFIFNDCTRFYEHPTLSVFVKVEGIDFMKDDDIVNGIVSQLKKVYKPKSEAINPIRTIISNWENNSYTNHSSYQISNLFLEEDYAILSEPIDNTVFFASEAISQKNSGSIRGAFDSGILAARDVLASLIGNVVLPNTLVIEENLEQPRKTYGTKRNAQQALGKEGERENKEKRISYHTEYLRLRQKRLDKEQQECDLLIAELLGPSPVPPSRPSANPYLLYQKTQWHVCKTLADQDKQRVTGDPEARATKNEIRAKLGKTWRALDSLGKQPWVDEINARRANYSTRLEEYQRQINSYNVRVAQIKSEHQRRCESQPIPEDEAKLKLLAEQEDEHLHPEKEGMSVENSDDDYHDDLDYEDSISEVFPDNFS
In words: co-IP; FTP-tagged Lsd1 or Lsd2 precipitated from S. pombe whole cell extract with IgG Sepharose beads, 4-6 hours at 4°C; western blot with PAP, anti-myc or anti-HA. (In western blotting, separated proteins are transferred to a membrane and probed.)

Assay [2] addresses T2, lsd1-ΔHMG-FTP (S. pombe) (UniProt Q9Y802).
T2 sequence: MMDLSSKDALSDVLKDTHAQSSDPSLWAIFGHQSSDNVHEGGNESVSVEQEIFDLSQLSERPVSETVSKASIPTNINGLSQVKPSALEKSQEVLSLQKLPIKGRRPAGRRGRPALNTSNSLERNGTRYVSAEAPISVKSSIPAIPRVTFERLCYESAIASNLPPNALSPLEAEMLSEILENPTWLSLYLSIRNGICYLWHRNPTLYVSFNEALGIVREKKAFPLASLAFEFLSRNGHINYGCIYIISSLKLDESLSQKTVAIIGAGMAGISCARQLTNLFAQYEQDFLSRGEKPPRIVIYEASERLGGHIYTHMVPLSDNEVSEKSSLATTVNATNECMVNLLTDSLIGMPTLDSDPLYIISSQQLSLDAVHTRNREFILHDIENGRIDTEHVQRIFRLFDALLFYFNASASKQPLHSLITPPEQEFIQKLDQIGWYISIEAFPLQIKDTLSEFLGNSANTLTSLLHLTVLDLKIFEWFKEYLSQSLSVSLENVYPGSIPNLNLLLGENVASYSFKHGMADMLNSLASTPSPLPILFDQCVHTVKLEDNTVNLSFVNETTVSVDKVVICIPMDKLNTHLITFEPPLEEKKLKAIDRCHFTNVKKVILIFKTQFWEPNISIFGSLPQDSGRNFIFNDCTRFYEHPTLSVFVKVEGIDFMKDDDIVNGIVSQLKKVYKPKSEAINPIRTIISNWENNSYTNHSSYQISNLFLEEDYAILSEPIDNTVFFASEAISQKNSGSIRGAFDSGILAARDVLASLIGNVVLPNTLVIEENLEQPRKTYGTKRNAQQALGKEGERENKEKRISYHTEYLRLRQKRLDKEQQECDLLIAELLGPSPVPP
The assay is described as above.

In assay [3] the target is T3, Lsd2-FTP (S. pombe) (UniProt Q10135).
T3 sequence: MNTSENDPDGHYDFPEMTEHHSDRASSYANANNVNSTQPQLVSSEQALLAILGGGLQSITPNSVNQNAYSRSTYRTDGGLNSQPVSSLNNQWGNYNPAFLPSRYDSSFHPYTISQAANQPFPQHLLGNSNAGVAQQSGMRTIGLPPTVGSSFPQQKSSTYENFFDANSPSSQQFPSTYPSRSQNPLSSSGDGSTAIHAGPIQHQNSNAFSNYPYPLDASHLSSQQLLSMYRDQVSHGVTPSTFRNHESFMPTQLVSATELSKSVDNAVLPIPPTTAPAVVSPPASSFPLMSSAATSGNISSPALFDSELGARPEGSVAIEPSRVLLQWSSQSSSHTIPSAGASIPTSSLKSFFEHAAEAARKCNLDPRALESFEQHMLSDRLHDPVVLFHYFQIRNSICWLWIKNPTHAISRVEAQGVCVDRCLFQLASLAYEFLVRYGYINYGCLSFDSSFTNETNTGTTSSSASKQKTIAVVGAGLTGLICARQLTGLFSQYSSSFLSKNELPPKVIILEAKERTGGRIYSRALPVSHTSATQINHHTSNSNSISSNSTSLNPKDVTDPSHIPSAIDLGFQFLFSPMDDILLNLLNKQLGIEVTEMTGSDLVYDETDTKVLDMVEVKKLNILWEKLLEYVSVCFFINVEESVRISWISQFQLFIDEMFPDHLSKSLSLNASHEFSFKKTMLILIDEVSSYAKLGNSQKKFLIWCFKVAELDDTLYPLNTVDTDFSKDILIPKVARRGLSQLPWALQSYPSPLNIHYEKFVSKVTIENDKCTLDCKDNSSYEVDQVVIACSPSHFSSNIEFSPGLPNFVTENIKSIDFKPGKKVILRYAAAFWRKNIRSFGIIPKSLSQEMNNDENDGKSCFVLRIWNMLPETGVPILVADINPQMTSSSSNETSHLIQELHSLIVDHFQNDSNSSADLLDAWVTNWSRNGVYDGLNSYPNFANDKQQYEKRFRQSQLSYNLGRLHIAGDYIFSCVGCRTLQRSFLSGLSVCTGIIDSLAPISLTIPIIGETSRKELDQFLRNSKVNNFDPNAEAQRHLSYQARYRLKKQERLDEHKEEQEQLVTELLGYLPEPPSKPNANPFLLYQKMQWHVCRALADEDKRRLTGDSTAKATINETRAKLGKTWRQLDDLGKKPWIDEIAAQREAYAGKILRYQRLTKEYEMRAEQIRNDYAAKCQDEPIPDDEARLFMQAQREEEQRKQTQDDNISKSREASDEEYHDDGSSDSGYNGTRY
The description is as above.

Assay [4] has as its target T4, Phf2 (yeast two-hybrid fusion) (S. pombe) (UniProt Q09908).
T4 sequence: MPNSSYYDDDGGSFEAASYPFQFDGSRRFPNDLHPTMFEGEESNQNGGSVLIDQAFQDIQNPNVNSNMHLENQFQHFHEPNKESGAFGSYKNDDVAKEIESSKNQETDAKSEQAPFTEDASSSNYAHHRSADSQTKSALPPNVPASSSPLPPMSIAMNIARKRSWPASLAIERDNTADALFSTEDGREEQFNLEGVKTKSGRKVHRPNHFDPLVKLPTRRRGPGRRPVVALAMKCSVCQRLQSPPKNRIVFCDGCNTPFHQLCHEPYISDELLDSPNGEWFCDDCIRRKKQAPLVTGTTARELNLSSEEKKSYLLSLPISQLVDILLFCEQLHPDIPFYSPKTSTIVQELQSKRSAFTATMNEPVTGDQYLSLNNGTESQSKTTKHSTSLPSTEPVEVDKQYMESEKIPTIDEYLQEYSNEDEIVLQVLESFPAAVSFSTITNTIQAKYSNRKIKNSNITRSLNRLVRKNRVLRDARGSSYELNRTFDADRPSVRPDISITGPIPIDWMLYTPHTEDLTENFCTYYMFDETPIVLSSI
Kind of assay: two-hybrid; Matchmaker Gold system; bait fused to Gal4-BD (pGBKT7, Y2H Gold cells), prey fused to Gal4-AD (pGADT7, Y187 cells), mated; reporters ADE2 (-Ade -Leu -Trp) and MEL1 (-Leu -Trp +X-α-gal).

For assay [5], the target named is T5, Lsd1 (yeast two-hybrid fusion) (S. pombe) (UniProt Q9Y802).
T5 sequence: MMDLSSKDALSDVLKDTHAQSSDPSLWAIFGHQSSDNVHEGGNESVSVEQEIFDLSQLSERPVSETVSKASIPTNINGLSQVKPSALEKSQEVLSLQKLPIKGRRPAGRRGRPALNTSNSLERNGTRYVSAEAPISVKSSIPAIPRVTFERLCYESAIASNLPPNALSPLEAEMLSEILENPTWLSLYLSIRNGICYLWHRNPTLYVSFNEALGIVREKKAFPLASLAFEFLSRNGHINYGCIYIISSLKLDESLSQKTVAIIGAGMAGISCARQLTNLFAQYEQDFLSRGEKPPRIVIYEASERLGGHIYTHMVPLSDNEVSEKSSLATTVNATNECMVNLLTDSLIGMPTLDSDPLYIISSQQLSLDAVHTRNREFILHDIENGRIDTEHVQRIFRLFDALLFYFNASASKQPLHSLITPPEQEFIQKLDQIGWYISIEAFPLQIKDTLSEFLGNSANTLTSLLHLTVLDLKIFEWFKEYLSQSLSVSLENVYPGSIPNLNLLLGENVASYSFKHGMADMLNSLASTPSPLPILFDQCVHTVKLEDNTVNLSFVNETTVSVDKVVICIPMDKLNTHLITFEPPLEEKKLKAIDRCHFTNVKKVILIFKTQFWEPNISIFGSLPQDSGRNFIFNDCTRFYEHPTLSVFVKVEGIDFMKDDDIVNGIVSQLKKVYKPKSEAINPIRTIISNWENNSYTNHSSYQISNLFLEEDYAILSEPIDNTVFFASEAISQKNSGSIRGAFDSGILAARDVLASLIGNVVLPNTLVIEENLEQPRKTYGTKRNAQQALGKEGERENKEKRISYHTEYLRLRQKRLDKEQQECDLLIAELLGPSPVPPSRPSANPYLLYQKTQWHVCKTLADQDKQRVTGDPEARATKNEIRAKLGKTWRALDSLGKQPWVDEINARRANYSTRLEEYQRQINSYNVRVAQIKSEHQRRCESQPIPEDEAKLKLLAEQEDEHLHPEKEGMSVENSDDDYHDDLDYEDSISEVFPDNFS
The assay is described as above.

B1: Phf1-myc (protein, UniProt P87233 1-461)
chain: MSQKNFFDEGKSYGVNDYAGFHFENGADSSLPQVSAQGVVRETDSSNFDASPVASGSGISDVGPFGADFHQLQQHVQTPYGGMTMPASSSSGATSVPPEQDPSLSVSFNRLPKSASTKTKNGRIRSSRREDDNRIPFYDLDVAEGAEDDLQEDFHVEGMKTKSGRKIQRPVAYNPNATALKRKSRKVDMVTLCSVCQRGHSPLSNRIVFCDGCNSPYHQLCHHPPIDDATVQDVDAEWFCMKCQYRRAKQPLETGMTAQDLGLSESDKKMYLSSLPTPHLADLILFCEKSYPSLPIYNPRTRELLGEIRHQLLVSSERQQISLQERLHAKQDEAPSDEPAPVPYTASYVANSGTLYDYPTLIRLAIRNTLSPSKDEIFNWLAQNVPLLPTFHDSASEAIRWMVNKGQLVRSGSIYQIATVEEYPHLQPSLLPTFQRNRKVPKLVPVSFPTDDPQNLCATVL
With B1, the binding result in assay [1], in assay [2] and in assay [3] was “binds” each time.

B2: Phf1 (yeast two-hybrid fusion) (protein, UniProt P87233 1-461)
chain: MSQKNFFDEGKSYGVNDYAGFHFENGADSSLPQVSAQGVVRETDSSNFDASPVASGSGISDVGPFGADFHQLQQHVQTPYGGMTMPASSSSGATSVPPEQDPSLSVSFNRLPKSASTKTKNGRIRSSRREDDNRIPFYDLDVAEGAEDDLQEDFHVEGMKTKSGRKIQRPVAYNPNATALKRKSRKVDMVTLCSVCQRGHSPLSNRIVFCDGCNSPYHQLCHHPPIDDATVQDVDAEWFCMKCQYRRAKQPLETGMTAQDLGLSESDKKMYLSSLPTPHLADLILFCEKSYPSLPIYNPRTRELLGEIRHQLLVSSERQQISLQERLHAKQDEAPSDEPAPVPYTASYVANSGTLYDYPTLIRLAIRNTLSPSKDEIFNWLAQNVPLLPTFHDSASEAIRWMVNKGQLVRSGSIYQIATVEEYPHLQPSLLPTFQRNRKVPKLVPVSFPTDDPQNLCATVL
Regarding B2, the binding result in assay [4] and in assay [5] was “binds” in each case.

B3: Phf2-myc (protein, UniProt Q09908 1-538)
chain: MPNSSYYDDDGGSFEAASYPFQFDGSRRFPNDLHPTMFEGEESNQNGGSVLIDQAFQDIQNPNVNSNMHLENQFQHFHEPNKESGAFGSYKNDDVAKEIESSKNQETDAKSEQAPFTEDASSSNYAHHRSADSQTKSALPPNVPASSSPLPPMSIAMNIARKRSWPASLAIERDNTADALFSTEDGREEQFNLEGVKTKSGRKVHRPNHFDPLVKLPTRRRGPGRRPVVALAMKCSVCQRLQSPPKNRIVFCDGCNTPFHQLCHEPYISDELLDSPNGEWFCDDCIRRKKQAPLVTGTTARELNLSSEEKKSYLLSLPISQLVDILLFCEQLHPDIPFYSPKTSTIVQELQSKRSAFTATMNEPVTGDQYLSLNNGTESQSKTTKHSTSLPSTEPVEVDKQYMESEKIPTIDEYLQEYSNEDEIVLQVLESFPAAVSFSTITNTIQAKYSNRKIKNSNITRSLNRLVRKNRVLRDARGSSYELNRTFDADRPSVRPDISITGPIPIDWMLYTPHTEDLTENFCTYYMFDETPIVLSSI
Regarding B3, the binding result in assay [1] and in assay [2] was “binds” each time.
